For two molecules, binding results are on record in patent publication US20160326532A1.

The chains behind the UniProt entries cited, without tags or fusion partners. Where a name states a change or a piece, a line headed by the entry shows the natural chain unless it says otherwise.
UniProt P40337: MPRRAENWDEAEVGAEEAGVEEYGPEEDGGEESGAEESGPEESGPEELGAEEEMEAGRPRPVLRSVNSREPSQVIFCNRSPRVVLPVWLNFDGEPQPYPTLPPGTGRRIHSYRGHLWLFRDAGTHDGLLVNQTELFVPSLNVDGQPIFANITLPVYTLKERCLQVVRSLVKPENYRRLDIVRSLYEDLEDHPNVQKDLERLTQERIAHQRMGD

For experiment [1], the target named is HA-tagged VHL (Homo sapiens (Human)) (UniProt P40337). The experiment can be described thus: co-immunoprecipitation of exogenous proteins from HEK 293T cell extracts (FIG. 9A).
The target of experiment [2] is pVHL (von Hippel-Lindau protein) (human) (UniProt P40337). Briefly: co-immunoprecipitation of Myc-tagged WSB1 (WT and deletion mutants) with pVHL (FIGS. 10A, 10B).
The target is the same in experiment [3]. Briefly: in vitro binding assay, GST-WSB1 on GSH Sepharose, immunoblot (FIG. 10D). On the technique in general: A western blot detects proteins with antibodies after separation by electrophoresis.

No constants are given. Whether binding was seen depends on the method and setting. For part of these data: Binding seen in cells or lysates may run through a third protein. Some results given as binding are weak or reduced against the parent protein; the word gives no strength. Sequences can lack the tags named with a protein.

B1: Myc-tagged WSB1 (WT) (enzyme, not shown: small tags and cut ends)
chain: MASFPPRVNEKEIVRLRTIGELLAPAAPFDKKCGRENWTVAFAPDGSYFAWSQGHRTVKLVPWSQCLQNFLLHGTKNVTNSSSLRLPRQNSDGGQKNKPREHIIDCGDIVWSLAFGSSVPEKQSRCVNIEWHRFRFGQDQLLLATGLNNGRIKIWDVYTGKLLLNLVDHTEVVRDLTFAPDGSLILVSASRDKTLRVWDLKDDGNMMKVLRGHQNWVYSCAFSPDSSMLCSVGASKAVFLWNMDKYTMIRKLEGHHHDVVACDFSPDGALLATASYDTRVYIWDPHNGDILMEFGHLFPPPTPIFAGGANDRWVRSVSFSHDGLHVASLADDKMVRFWRIDEDYPVQVAPLSNGLCCAFSTDGSVLAAGTHDGSVYFWATPRQVPSLQHLCRMSIRRVMPTQEVQELPIPSKLLEFLSYRI
On to B1, for which the binding entry in experiment [1] and in experiment [2] was “binds” each time.

B2: WSB1 (WT) GST fusion protein (enzyme, not shown: a dimerising Fc or GST)
chain: MASFPPRVNEKEIVRLRTIGELLAPAAPFDKKCGRENWTVAFAPDGSYFAWSQGHRTVKLVPWSQCLQNFLLHGTKNVTNSSSLRLPRQNSDGGQKNKPREHIIDCGDIVWSLAFGSSVPEKQSRCVNIEWHRFRFGQDQLLLATGLNNGRIKIWDVYTGKLLLNLVDHTEVVRDLTFAPDGSLILVSASRDKTLRVWDLKDDGNMMKVLRGHQNWVYSCAFSPDSSMLCSVGASKAVFLWNMDKYTMIRKLEGHHHDVVACDFSPDGALLATASYDTRVYIWDPHNGDILMEFGHLFPPPTPIFAGGANDRWVRSVSFSHDGLHVASLADDKMVRFWRIDEDYPVQVAPLSNGLCCAFSTDGSVLAAGTHDGSVYFWATPRQVPSLQHLCRMSIRRVMPTQEVQELPIPSKLLEFLSYRI
B2: the binding result in experiment [3] is listed as “binds”.
